Measurements published in article PMC7819943, “Rice protein-binding microarrays: a tool to detect cis-acting elements near promoter regions in rice”.
The other results are listed elsewhere or left out.

Target: T1, OsSMF1 (Oryza sativa, UniProt Q6ZLB0 1-436)
T1 sequence: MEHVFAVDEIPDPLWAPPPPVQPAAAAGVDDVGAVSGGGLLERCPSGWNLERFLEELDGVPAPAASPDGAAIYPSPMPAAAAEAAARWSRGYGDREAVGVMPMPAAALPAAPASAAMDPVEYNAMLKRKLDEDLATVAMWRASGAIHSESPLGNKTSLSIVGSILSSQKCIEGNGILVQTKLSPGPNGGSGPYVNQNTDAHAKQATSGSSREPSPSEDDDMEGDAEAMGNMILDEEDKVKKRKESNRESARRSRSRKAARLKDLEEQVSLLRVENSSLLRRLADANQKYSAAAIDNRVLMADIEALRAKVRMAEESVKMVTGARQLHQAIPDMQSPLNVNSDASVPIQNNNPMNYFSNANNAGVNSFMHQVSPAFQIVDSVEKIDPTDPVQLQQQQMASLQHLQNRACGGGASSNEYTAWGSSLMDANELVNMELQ
Assay: protein-binding microarray (RPBM); PBS, 2% BSA, 51.3 ng/ul salmon testes DNA, 50 uM zinc acetate, 200 nM TF, 25 C, 1 h; high values mean tight binding
Conditions: protein: recombinant; tags: N-terminal polyhistidine and DsRed monomer fusion (pET32a); chain copies: 2; label: CyDye5-dUTP incorporated in the synthesized complementary strand; 3' TTTTT single-stranded linker to array surface; dsDNA, one strand shown
In short: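 The binding signal is fluorescence intensity per feature, in arbitrary units, read on an Axon 4000B scanner. Polyhistidine- and DsRed-tagged transcription factors (N-terminal fusions) from E. coli BL21-CodonPlus were purified on Ni–NTA and applied at 200 nM for 1 h at 25 °C to a double-stranded, BSA-blocked custom Agilent array in buffer with 50 µM zinc acetate.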

Sequence	binding signal
GCAGACGACGATCTGAATTTCTGATTACAGCTGTACTACGCGGAGTCACCTAGTGCAG	3320 fluorescence intensity (a.u.)
CTGCACACAACGCGCACGTCATGATTGGCACTAGTACACGCGGAGTCACCTAGTGCAG	5510 fluorescence intensity (a.u.)
GATTGGCCAAAACAAATGGCGACCGCATTACCCCGTTCTCCGGAGTCACCTAGTGCAG	3410 fluorescence intensity (a.u.)
CGATAGATTTCACCGAGCATGACATCGTCAGCAATATCAGCGGAGTCACCTAGTGCAG	5740 fluorescence intensity (a.u.)
TTAGGAGTTGTAGCTCTACCAAACATGCACTAAATTATTACGGAGTCACCTAGTGCAG	3160 fluorescence intensity (a.u.)
GGAGAAGGCCTGGTTCAACGGTGCCGTGGCCTCGTTCGCGCGGAGTCACCTAGTGCAG	3850 fluorescence intensity (a.u.)
ATATGGCATTGTTTCTGTGTTATTCAGGCGCACCTTTAAACGGAGTCACCTAGTGCAG	3210 fluorescence intensity (a.u.)
CGGTAGGACAATCTATGTGACATGGCACCCTGTGGGTTGCCGGAGTCACCTAGTGCAG	8010 fluorescence intensity (a.u.)
AAACAACAGTTGTCTGACTTGAGTTGCTGATTTCGACGTTCGGAGTCACCTAGTGCAG	3900 fluorescence intensity (a.u.)
CGCTACCGTGGCATGCCACGTCACCGGATGGAGCGGGTCGCGGAGTCACCTAGTGCAG	20100 fluorescence intensity (a.u.)
CTCATCTCTCCCACCTCCATCACCAAACCAGCACAGGTCGCGGAGTCACCTAGTGCAG	3240 fluorescence intensity (a.u.)
GTTTTAGCGGATGTGGCATCATTTTCAGCATAATAATAATCGGAGTCACCTAGTGCAG	4520 fluorescence intensity (a.u.)
TCGGAGACAAACTCGTACTGCAAAGCCTACGTGAAAATCGCGGAGTCACCTAGTGCAG	28900 fluorescence intensity (a.u.)
TAACTGTGTGTGATGGTTGGATGGAAGGAGAGGCCCTGCACGGAGTCACCTAGTGCAG	37800 fluorescence intensity (a.u.)
GTTGACGTCTCCCAAGTGCCACACCCGCCGCCACGTCACTCGGAGTCACCTAGTGCAG	35500 fluorescence intensity (a.u.)
CTGCTCGACGCCGCCTGCGACAGACGCGTCACGGACCTTCCGGAGTCACCTAGTGCAG	5620 fluorescence intensity (a.u.)
CCATGTCCCAGCATCGCGGAGGTGTGTCCCTACATGTCAGCGGAGTCACCTAGTGCAG	3340 fluorescence intensity (a.u.)
GGTTTATGGGTGCCGATGTGGTTAAAATCATTTATGTGCTCGGAGTCACCTAGTGCAG	5050 fluorescence intensity (a.u.)
TTCAGCAAACACTTCTAAACATGCCTGCGGATGTTTTGGGCGGAGTCACCTAGTGCAG	13600 fluorescence intensity (a.u.)
AACTTAACAGCTCAAGCTTAATTCTGGGCCAAATTCACCACGGAGTCACCTAGTGCAG	3420 fluorescence intensity (a.u.)
ACGCGAGGATGTCGACGAGGCGGTGGGCGACGCAAACCCGCGGAGTCACCTAGTGCAG	3480 fluorescence intensity (a.u.)

Sequence	binding signal
TATATGGTACTGTACGTATACGTGTCCAGCTATATATTCACGGAGTCACCTAGTGCAG	6670 fluorescence intensity (a.u.)
ATCTAGCGTGGTTACATGCTTGGGCCACGTCTCGGACCATCGGAGTCACCTAGTGCAG	3810 fluorescence intensity (a.u.)
GTCTATTTAATCCTGTATCACGCCCAGATTCCTGAGTCCACGGAGTCACCTAGTGCAG	3180 fluorescence intensity (a.u.)
CAACTAGAAATCAGATCCACGTCTACTAGTACAGATATGTCGGAGTCACCTAGTGCAG	4810 fluorescence intensity (a.u.)
TCACCAATTTGCATGGAACCGTGGCTGTTTGGCGGTGCCACGGAGTCACCTAGTGCAG	3330 fluorescence intensity (a.u.)
ACTTATCTTGTTATAGCTGACGACGACATTCTGATGTGTCCGGAGTCACCTAGTGCAG	6840 fluorescence intensity (a.u.)
GCGTTCGCGTATATATCCCTCTCCTCACACACACAGGTGTCGGAGTCACCTAGTGCAG	3510 fluorescence intensity (a.u.)
TACGTGTGGATTTTCTCGCCGGAGTTATCACGAGAATTCGCGGAGTCACCTAGTGCAG	3200 fluorescence intensity (a.u.)
ACTGGCATATGATAAGCAGTTCACATTACATCATTTAAAACGGAGTCACCTAGTGCAG	5150 fluorescence intensity (a.u.)
CGCATCGCATCTATGACTGGAGAGTGTATCTTTGCTTGCACGGAGTCACCTAGTGCAG	3180 fluorescence intensity (a.u.)
CTTCTCCAGGCTCCAGCTCAGGTTGCTGATCCGCTCCTTTCGGAGTCACCTAGTGCAG	27000 fluorescence intensity (a.u.)
TCGACGATCACTTCATAGGATTCCCTCTCTTTCTACAATCCGGAGTCACCTAGTGCAG	6640 fluorescence intensity (a.u.)
AGCGCTCTGGACTGAACAGTCCTCACAGCCACCGCCTCCGCGGAGTCACCTAGTGCAG	3910 fluorescence intensity (a.u.)
GGTGTCCTTCCAAATTCGACTCTGCATCCCATACGCACACCGGAGTCACCTAGTGCAG	3650 fluorescence intensity (a.u.)
GGAGAAGGTTGTCACTGCATATTGCATCATTGCATGAGTGCGGAGTCACCTAGTGCAG	4950 fluorescence intensity (a.u.)
TTTTACATATGGCAGAAATTTGCAACTCTTGAGTCATCTGCGGAGTCACCTAGTGCAG	5130 fluorescence intensity (a.u.)
GCGGCGGGGTGTCGCGGTGGTGGGTGAAGGCGACGTCGACCGGAGTCACCTAGTGCAG	3330 fluorescence intensity (a.u.)
TCCTCCTCTCCCTCGCCATGCTCGCCTTCGAGACGGTGGCCGGAGTCACCTAGTGCAG	3240 fluorescence intensity (a.u.)
GTTAATTACTTGAACCACGTAAGAAAACAAGGACACATGCCGGAGTCACCTAGTGCAG	3200 fluorescence intensity (a.u.)
TTCCTACATTCATATTGATGCCAATGAATCTAGATATGAACGGAGTCACCTAGTGCAG	12100 fluorescence intensity (a.u.)
ATGTATAACTTAGATCCATACACACGTGGACGACGGGTGACGGAGTCACCTAGTGCAG	7540 fluorescence intensity (a.u.)

No new results follow: an excerpt of the list.
Sequence	binding signal
GATTGGCCAAAACAAATGGCGACCGCATTACCCCGTTCTCCGGAGTCACCTAGTGCAG	3410 fluorescence intensity (a.u.)
CGATAGATTTCACCGAGCATGACATCGTCAGCAATATCAGCGGAGTCACCTAGTGCAG	5740 fluorescence intensity (a.u.)
TTAGGAGTTGTAGCTCTACCAAACATGCACTAAATTATTACGGAGTCACCTAGTGCAG	3160 fluorescence intensity (a.u.)
GGAGAAGGCCTGGTTCAACGGTGCCGTGGCCTCGTTCGCGCGGAGTCACCTAGTGCAG	3850 fluorescence intensity (a.u.)
ATATGGCATTGTTTCTGTGTTATTCAGGCGCACCTTTAAACGGAGTCACCTAGTGCAG	3210 fluorescence intensity (a.u.)

Carrying on:

Sequence	binding signal
TCTTTGTGTTCTTGCTCTCTCTCACCATTACACGTCGAATCGGAGTCACCTAGTGCAG	5510 fluorescence intensity (a.u.)
GCCGGCTCGCCTCTGGCACGCCCACCTCATCCGCCTCCACCGGAGTCACCTAGTGCAG	4870 fluorescence intensity (a.u.)
CGTCCCTCTGACGTAGAAGCCACTGCGTCAGAGGATCCGGCGGAGTCACCTAGTGCAG	5510 fluorescence intensity (a.u.)
CGGTCCTCTTCCTCCGTTCTCCTCTTCCCCTTGCCCTCCTCGGAGTCACCTAGTGCAG	28400 fluorescence intensity (a.u.)
TGCGACGTGGCGACAACTCATCACGCCCCTCGTTTCCCTGCGGAGTCACCTAGTGCAG	11800 fluorescence intensity (a.u.)
TTTTGTATACTCCACGTAGACGCATATTACAAGCCAACTACGGAGTCACCTAGTGCAG	6510 fluorescence intensity (a.u.)
CCGCCGTAGCAGCAGCATCATCATCATCAACAACAGCAGCCGGAGTCACCTAGTGCAG	3410 fluorescence intensity (a.u.)
AGGTTTGGGTTGAGATGGGAGTAGAGGGGAGTGAGGTGGACGGAGTCACCTAGTGCAG	6150 fluorescence intensity (a.u.)
TGTTCCGTTGTCAAATGACTGTACATCTTATATTTGCCAACGGAGTCACCTAGTGCAG	5510 fluorescence intensity (a.u.)
GAAAGGGATGGCTCACTTGAAACGTACTGCTCCCTGCCCCCGGAGTCACCTAGTGCAG	3160 fluorescence intensity (a.u.)
CGCTTCCAAGGGAGGCTTAGAGCAAGTTCAATAGTATAGCCGGAGTCACCTAGTGCAG	5030 fluorescence intensity (a.u.)
GTTTGCAGTTGCAGACACAGCCCGGCATCTTCCATCTTTTCGGAGTCACCTAGTGCAG	28000 fluorescence intensity (a.u.)
AGAGGGTTTGTGATTTTAGTCTAATAGCGGCATGTCAGTACGGAGTCACCTAGTGCAG	4250 fluorescence intensity (a.u.)
TGATCGATCACACACGTTGCCATCACCAACTTTTCACAGACGGAGTCACCTAGTGCAG	3940 fluorescence intensity (a.u.)
AGACATATTTTAGCATGAATCATCATCACAGGGAAGTAAGCGGAGTCACCTAGTGCAG	4310 fluorescence intensity (a.u.)
TATTCGTGATGTCATGTGACCTAAACAAATGTGTGCCATTCGGAGTCACCTAGTGCAG	4700 fluorescence intensity (a.u.)
TCGGCGGATCGGTGGGTTGCGGGCTTGCACGTAGTCGAGGCGGAGTCACCTAGTGCAG	16100 fluorescence intensity (a.u.)
AGGTCTGATGCCTCCTACAAACTCGAAAATTCCGATAGAACGGAGTCACCTAGTGCAG	3180 fluorescence intensity (a.u.)
TGCCTGCTTCGCCCACCGTCACCCTGTCAGCTTTGTGTGCCGGAGTCACCTAGTGCAG	5560 fluorescence intensity (a.u.)
ATACTAATACTCCATGGCGTGGCGTCTCATCATGTCTCGACGGAGTCACCTAGTGCAG	5590 fluorescence intensity (a.u.)
GCAGGTTCCTGCATTAAACTCACGAAATAATAAAGGTAAGCGGAGTCACCTAGTGCAG	15400 fluorescence intensity (a.u.)

Sequence	binding signal
GATATCATGTAGGAGTAGTAGTTGTTATGTGTGTGGGCTACGGAGTCACCTAGTGCAG	13000 fluorescence intensity (a.u.)
ACAGCAAAACACACTCTCATCAGTGTCAGGTCTCCACACCCGGAGTCACCTAGTGCAG	3710 fluorescence intensity (a.u.)
AAAAGTGTGTATTGCCCAAATGCCATTTTACTAAAGGGATCGGAGTCACCTAGTGCAG	11600 fluorescence intensity (a.u.)
GGAGAGGGAGACAGCCGTGGTGGCGTGGTCTCGTCTCTTCCGGAGTCACCTAGTGCAG	3240 fluorescence intensity (a.u.)
AATTCACTCAGTCATCACACACTCAGTCATCACAAGTATACGGAGTCACCTAGTGCAG	3590 fluorescence intensity (a.u.)
GGAAATAGTAAATAGCTACTACCAAGCCATAAGCTTACTACGGAGTCACCTAGTGCAG	17900 fluorescence intensity (a.u.)
CGTCATTAGACAAGAAACAGGGTTCCACAAACTAGTGCTACGGAGTCACCTAGTGCAG	13900 fluorescence intensity (a.u.)
AGCCGAGGAGCGAGGAGCTCTGCCGCATCCACCTCAATCTCGGAGTCACCTAGTGCAG	3270 fluorescence intensity (a.u.)
CCTCGTCAATCCTCTACATCCTGCGTTTCTTCCCCGTATACGGAGTCACCTAGTGCAG	3470 fluorescence intensity (a.u.)
GTGCAGAACATAGTACGTGTCAGGTGTCACTGTTAAACGCCGGAGTCACCTAGTGCAG	8690 fluorescence intensity (a.u.)
CTGTCGCCTCCAGCCCCAGCGTCGGACATGGCGCCGGGAGCGGAGTCACCTAGTGCAG	3210 fluorescence intensity (a.u.)
TTGCACATGCTGATTATTACATATTGCTACGTCCTTTTGCCGGAGTCACCTAGTGCAG	3230 fluorescence intensity (a.u.)
CCCACGTGAGTAAGCTCCTCCCTGCTGGTTTGATTCCCTTCGGAGTCACCTAGTGCAG	4650 fluorescence intensity (a.u.)
AATTTACTCCTGCGATTTGCAAATGAGTCACGTGCACGCGCGGAGTCACCTAGTGCAG	11700 fluorescence intensity (a.u.)
AAGAATCATCTCAAGTGTAAACACGTACGCGCTGCCAACCCGGAGTCACCTAGTGCAG	5670 fluorescence intensity (a.u.)
GCAAATAAAGAAGGAGATGACATAAGGGGTAGTAACTGGTCGGAGTCACCTAGTGCAG	3730 fluorescence intensity (a.u.)
GATGATACTGGCGTCAGATGAGGAACGGGTCAACGTGACACGGAGTCACCTAGTGCAG	4540 fluorescence intensity (a.u.)
AGCTCCAGCGACCGCCCGGACTTGCCGTCCCGGACGACGGCGGAGTCACCTAGTGCAG	29400 fluorescence intensity (a.u.)
TGAATATAAACACAACTACATTTAGCGACAGAAGAAGAACCGGAGTCACCTAGTGCAG	40600 fluorescence intensity (a.u.)
TCGCGCGTGTCACTGGGTTTGGGTTGGGTCTCTCTCTCTCCGGAGTCACCTAGTGCAG	3760 fluorescence intensity (a.u.)
AGCTCCATGATTCCGTCTATGCCGGTAGTGACACTGCAAGCGGAGTCACCTAGTGCAG	5160 fluorescence intensity (a.u.)
